For one substance, binding results are on record in article doi:10.1101/252056.

Amino acid sequences for entries named in this document (tags omitted). Residues count along the entry.
UniProt O14744: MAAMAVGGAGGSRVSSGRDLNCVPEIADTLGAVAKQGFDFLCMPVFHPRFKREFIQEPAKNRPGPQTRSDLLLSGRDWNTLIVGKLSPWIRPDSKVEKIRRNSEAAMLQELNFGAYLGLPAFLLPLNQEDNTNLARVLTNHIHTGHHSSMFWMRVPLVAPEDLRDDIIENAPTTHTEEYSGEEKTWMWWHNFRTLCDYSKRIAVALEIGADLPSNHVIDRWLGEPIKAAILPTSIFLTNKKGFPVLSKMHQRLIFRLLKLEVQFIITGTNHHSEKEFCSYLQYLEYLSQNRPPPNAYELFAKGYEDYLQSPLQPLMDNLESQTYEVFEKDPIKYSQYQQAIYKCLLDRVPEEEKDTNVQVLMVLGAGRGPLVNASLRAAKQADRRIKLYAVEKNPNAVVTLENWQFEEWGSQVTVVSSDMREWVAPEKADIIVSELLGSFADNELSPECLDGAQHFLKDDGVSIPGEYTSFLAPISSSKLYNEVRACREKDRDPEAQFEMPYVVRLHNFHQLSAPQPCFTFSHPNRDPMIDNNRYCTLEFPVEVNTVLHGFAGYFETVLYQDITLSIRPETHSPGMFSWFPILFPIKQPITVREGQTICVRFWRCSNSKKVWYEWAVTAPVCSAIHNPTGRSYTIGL
UniProt P16234, residues 24-1089: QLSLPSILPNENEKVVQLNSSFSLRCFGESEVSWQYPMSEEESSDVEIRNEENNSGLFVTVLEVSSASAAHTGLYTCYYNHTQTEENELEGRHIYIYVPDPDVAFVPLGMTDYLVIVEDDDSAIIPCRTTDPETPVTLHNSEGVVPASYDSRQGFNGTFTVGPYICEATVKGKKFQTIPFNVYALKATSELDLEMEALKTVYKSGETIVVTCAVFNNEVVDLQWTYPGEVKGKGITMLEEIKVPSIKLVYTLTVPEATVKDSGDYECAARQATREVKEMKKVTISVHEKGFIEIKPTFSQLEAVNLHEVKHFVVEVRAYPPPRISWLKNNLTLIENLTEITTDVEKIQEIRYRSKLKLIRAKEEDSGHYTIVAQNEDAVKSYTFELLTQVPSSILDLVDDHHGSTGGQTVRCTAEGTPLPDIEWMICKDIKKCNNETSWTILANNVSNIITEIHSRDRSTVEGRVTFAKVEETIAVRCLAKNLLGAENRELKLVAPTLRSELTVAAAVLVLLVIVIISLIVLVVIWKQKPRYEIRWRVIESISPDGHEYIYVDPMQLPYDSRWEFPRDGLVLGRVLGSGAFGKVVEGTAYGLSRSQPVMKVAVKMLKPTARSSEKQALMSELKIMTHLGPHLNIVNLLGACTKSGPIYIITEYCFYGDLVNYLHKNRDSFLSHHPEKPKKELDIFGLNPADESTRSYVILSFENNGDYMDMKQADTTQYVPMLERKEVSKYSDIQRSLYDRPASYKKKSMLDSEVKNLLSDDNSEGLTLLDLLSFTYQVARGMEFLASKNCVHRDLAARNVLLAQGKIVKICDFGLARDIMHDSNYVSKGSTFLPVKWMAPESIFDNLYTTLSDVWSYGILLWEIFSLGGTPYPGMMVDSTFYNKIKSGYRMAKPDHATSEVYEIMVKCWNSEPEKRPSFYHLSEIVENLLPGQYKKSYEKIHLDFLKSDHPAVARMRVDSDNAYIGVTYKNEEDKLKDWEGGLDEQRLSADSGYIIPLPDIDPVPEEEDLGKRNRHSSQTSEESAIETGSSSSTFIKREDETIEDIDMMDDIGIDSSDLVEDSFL

No constants are given. Whether binding was seen depends on the method and setting. In cells and extracts the contact can be indirect. Some binding calls cover weakened binding; strength is not graded here.

One assay deals with HA-Cbl (UniProt P22681). The assay can be described thus: co-IP.
The next assay has as its target myc-PRMT5 (UniProt O14744). Briefly: co-IP.

“Platelet derived growth factor receptor α (PDGFRα) (from UniProt P16234 24-1089)”: the binding entry with HA-Cbl and with myc-PRMT5 was “binds” in each case.
